Source: paper PMC13132431
Results are given in words; binding and its absence hold for the method and conditions named. Binding seen in cells or lysates may run through a third protein. These calls come from enrichment with a bait or labelling near it, and not all partners need be listed. For some of these results: No binding means not detected with the bait. Tags and fused reporters may be left off the sequences shown.

Amino acid sequences for entries named in this document (tags omitted). A change or cut given only in a name is not applied to a line headed by its entry.
UniProt Q9LZ30: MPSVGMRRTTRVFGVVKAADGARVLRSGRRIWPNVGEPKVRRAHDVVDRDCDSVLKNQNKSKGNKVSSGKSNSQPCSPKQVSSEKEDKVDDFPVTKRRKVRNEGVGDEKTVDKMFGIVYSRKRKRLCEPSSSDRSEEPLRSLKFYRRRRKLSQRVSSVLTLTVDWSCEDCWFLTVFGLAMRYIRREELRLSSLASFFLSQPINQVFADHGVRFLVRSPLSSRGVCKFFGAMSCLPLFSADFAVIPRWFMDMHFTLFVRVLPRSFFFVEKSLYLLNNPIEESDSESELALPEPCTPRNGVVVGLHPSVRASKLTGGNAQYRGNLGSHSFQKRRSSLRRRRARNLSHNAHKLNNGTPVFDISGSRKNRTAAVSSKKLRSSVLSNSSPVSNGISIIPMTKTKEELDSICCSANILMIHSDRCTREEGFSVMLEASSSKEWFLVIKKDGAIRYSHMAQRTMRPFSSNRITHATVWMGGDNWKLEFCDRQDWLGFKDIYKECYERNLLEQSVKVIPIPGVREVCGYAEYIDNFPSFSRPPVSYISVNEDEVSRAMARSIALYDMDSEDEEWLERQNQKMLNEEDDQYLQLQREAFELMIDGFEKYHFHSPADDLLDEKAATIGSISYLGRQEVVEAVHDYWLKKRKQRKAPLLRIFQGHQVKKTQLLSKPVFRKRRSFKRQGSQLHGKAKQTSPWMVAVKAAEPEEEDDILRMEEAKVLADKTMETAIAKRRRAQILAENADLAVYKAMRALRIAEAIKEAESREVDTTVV
UniProt F4IPJ1: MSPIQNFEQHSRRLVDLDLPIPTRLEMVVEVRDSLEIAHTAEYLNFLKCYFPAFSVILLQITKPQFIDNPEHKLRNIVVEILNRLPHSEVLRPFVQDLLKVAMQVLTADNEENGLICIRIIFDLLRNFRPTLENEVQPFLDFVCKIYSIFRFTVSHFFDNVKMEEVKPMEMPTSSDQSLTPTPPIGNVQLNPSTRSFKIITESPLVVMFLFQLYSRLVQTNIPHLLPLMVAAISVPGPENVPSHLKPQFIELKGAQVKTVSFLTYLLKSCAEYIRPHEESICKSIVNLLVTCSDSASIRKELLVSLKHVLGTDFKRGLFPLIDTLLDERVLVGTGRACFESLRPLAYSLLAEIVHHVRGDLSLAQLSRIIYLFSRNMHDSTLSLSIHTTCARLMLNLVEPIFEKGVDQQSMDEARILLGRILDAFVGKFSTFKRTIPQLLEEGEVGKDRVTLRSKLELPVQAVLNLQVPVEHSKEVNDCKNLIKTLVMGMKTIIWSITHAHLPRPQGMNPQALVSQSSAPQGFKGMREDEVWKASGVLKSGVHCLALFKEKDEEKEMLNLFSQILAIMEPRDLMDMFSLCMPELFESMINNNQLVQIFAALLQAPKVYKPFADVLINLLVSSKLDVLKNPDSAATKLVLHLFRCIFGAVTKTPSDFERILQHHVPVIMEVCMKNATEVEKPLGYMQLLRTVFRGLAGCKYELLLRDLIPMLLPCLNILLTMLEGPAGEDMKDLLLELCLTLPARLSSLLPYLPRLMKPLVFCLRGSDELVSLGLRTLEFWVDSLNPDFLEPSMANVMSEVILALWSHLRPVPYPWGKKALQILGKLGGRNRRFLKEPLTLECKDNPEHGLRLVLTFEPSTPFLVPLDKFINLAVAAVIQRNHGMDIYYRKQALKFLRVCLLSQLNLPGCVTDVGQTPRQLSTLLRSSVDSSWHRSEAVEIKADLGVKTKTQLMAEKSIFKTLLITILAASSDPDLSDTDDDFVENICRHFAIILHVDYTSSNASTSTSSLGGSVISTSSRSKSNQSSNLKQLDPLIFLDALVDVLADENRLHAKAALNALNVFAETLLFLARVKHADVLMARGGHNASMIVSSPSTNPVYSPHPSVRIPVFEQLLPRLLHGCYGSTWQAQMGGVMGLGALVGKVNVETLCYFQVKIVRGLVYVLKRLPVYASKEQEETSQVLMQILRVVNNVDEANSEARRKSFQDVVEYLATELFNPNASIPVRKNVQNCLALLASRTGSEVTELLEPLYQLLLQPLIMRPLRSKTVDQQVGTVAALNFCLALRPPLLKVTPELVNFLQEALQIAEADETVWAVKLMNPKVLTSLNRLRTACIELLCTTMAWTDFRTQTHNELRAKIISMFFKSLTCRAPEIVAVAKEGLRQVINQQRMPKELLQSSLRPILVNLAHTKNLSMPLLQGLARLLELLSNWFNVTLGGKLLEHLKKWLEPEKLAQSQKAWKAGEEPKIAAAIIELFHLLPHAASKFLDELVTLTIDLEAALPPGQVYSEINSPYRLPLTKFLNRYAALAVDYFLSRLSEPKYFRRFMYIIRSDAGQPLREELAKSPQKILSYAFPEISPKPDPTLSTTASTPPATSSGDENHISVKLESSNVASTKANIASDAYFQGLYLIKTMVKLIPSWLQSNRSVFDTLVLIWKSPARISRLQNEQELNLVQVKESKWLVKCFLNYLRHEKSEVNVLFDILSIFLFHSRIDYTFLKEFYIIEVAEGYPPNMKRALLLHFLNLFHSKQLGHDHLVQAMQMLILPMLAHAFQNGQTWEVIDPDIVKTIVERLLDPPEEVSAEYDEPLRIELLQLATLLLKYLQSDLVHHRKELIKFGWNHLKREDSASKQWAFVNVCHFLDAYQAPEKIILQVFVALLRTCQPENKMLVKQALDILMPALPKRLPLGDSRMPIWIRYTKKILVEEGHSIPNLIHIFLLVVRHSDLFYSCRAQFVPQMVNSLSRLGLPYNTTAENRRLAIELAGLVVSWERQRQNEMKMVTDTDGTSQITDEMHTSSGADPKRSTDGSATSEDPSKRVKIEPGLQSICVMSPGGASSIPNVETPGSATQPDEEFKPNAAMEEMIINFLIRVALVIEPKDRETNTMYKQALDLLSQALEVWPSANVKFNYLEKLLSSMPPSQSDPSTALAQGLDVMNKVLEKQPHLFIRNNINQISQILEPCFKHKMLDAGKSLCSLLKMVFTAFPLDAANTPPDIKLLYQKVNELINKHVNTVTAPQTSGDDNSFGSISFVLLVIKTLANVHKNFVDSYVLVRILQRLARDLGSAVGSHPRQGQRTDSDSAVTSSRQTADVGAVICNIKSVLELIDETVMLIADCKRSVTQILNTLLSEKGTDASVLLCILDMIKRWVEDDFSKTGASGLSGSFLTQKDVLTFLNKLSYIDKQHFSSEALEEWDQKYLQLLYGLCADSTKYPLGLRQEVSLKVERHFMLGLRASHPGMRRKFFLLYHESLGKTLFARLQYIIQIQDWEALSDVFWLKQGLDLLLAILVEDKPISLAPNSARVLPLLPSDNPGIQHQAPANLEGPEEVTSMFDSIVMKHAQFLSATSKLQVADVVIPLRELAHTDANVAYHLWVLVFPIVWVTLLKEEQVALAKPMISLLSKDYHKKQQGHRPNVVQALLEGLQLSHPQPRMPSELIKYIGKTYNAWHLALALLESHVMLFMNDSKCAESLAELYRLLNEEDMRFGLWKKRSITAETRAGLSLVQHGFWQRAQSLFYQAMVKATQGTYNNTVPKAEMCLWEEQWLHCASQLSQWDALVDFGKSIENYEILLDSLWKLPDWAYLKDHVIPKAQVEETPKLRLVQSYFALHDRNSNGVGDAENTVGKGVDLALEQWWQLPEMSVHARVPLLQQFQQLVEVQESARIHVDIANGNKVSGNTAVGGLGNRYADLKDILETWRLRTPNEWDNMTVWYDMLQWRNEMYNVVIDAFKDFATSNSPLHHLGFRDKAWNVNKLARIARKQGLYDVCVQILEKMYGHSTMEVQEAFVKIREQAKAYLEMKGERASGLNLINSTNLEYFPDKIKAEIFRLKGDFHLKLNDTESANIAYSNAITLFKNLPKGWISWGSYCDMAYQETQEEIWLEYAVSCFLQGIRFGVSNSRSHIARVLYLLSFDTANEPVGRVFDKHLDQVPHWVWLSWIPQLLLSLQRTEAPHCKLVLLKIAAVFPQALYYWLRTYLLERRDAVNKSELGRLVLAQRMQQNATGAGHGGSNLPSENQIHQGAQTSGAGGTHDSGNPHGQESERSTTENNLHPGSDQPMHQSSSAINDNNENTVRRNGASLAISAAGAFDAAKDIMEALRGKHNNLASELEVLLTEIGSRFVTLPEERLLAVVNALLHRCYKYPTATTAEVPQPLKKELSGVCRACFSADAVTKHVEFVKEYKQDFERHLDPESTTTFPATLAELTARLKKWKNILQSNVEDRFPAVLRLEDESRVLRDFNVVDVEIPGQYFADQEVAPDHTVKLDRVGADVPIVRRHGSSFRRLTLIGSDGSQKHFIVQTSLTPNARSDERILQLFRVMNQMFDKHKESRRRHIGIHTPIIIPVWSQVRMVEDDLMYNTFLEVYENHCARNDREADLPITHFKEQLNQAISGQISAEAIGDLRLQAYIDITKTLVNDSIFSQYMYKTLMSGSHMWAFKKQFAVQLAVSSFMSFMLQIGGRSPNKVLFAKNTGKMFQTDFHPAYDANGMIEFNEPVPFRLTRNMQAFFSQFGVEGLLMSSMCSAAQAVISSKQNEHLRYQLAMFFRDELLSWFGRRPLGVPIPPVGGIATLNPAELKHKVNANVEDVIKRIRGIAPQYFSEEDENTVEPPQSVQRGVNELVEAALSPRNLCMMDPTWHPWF

Assays:
[1] = target: T1, TELOMERE REPEAT BINDING FACTOR 1 (TRB1) fused to YFP, expressed under the Cauliflower Mosaic Virus 35S promoter (Arabidopsis thaliana) (UniProt Q8VWK4); experiment: affinity purification with mass spectrometry; GFP-trap agarose beads on nuclear extracts of transgenic plants expressing 35Sp-TRB1 or 35Sp-TRB3 fused to YFP/GFP; 35Sp-EDS1 fusion as background control; extracts treated with DNase I and RNase A; 20 mM Tris-HCl pH 7.4, 150 mM NaCl, 0.1% Triton X-100, 2 mM EDTA, 4°C, 2.5 h; biological triplicates; label-free quantification, ANOVA with HSD, FDR < 0.05
T1 sequence: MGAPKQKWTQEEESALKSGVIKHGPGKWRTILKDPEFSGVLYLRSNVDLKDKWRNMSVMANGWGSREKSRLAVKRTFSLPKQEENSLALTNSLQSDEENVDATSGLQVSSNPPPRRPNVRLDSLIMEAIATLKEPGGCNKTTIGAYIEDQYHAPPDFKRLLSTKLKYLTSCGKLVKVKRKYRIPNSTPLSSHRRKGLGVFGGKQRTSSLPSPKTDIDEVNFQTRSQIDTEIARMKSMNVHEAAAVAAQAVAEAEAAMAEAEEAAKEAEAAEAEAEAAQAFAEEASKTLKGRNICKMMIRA

[2] = target: T2, TELOMERE REPEAT BINDING FACTOR 3 (TRB3) fused to YFP, expressed under the Cauliflower Mosaic Virus 35S promoter (Arabidopsis thaliana) (UniProt Q9M2X3); experiment: as above
T2 sequence: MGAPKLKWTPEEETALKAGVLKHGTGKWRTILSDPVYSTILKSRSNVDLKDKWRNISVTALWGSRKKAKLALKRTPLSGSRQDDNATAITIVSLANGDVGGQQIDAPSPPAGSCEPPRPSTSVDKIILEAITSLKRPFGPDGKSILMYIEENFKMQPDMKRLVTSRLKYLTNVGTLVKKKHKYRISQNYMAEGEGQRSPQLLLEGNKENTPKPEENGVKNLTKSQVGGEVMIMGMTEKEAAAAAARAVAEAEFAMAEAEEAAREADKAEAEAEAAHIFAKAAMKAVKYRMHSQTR

| Substance | binding [1] | binding [2] |
| --- | --- | --- |
| EPCR1 (PEAT complex component) | binds | no binding |
| EPCR2 (PEAT complex component) (from UniProt Q9LZ30) | binds | – |
| NAC52 | binds | binds |
| TRA1A (NuA4 complex component) (from UniProt F4IPJ1) | binds | binds |
